Values quoted from earlier work, collected in patent US8632828B2, “Chinese herbal medicine composition used for antiinflammation, detumescence and acesodyne, and preparation method and use thereof” (priority 2009, dated 2014).
For at least one compound, name, drawing or mass did not settle the structure.

Tests used:
[1] = tested on: ehrlich ascites tumor of mice; conditions: intraperitoneal injection
[2] = tested on: melanin tumour; conditions: mice, intraperitoneal injection

For `O=C(O)c1cc(O)c2c(c1)C(=O)c1cccc(O)c1C2=O` [rhein], the “inhibiting effect on ehrlich ascites tumor” value [1] is listed as “injection, have good inhibiting” and the “inhibiting effect on melanin tumour” value [2] is listed as “injection, have good inhibiting”.
